Measured data: PubChem BioAssay AID652243 (Drosophila RNAi Screening Center, 2013)
Purpose: 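Fly genes required for human androgen receptor driven transcription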 (primary screen). Cells: Drosophila S2R+ cells. Reagents: long dsRNA against Drosophila genes. Time to read-out: 72 h (48 h, then 24 h hormone). Challenge: synthetic androgen R1881 at 10 nM for 24 h. Measured: 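Per-well raw luminescence of the androgen-driven firefly reporter and of the Renilla control, two replicates each, without normalisation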. Reading the numbers: firefly reporter light: higher = more light from androgen-responsive reporter; Renilla control light: higher = more constitutive control signal (cell number, transfection). Active means: 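Across duplicate plates, a knock-down whose log firefly/Renilla ratio shifted a set fold down or up from the GFP/LacZ control mean was a hit; the downward cut appears as both 1.5 and 3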. Calls: active = hit: reporter lowered or raised; inactive = no hit.
The screen tested about 24,000 reagents; below is a random part of those with a known target gene and a result. Over the whole deposit, 246 (1%) are marked active. 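Plates not normalised; calls are printed but the firefly/Renilla ratio behind them is not deposited; fold cut for lowering reported inconsistently.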 The raw values are shown without normalisation. Unmarked entries are inactive. Reagents against one gene are numbered here. No sequences are given here. Not given: the amount of reagent.

no.	gene	reagent	firefly reporter light, replicate 1	firefly reporter light, replicate 2	Renilla control light, replicate 1	Renilla control light, replicate 2
1	CG10993 (GeneID 32344)	1	4.44e5	4.47e5	2.89e6	3.54e6
2	Bfc (GeneID 38138)	1	1.91e5	2.08e5	2.78e6	2.47e6
3	ND-B22 (GeneID 34747)	1	1.49e5	1.50e5	1.87e6	1.75e6
4	ND-B22 (GeneID 34747)	2	2.92e5	6.57e5	7.28e5	1.47e6
5	CG15642 (GeneID 32476)	1	2.69e5	3.54e5	2.33e6	2.73e6
6	CG15642 (GeneID 32476)	2	5.58e5	5.90e5	1.43e6	1.49e6
7	CG1142 (GeneID 40894)	1	1.62e5	1.68e5	3.31e6	2.60e6
8	CG1142 (GeneID 40894)	2	2.12e5	1.62e5	3.64e5	6.43e5
9	step (GeneID 35425)	1	3.24e5	4.12e5	1.76e6	2.20e6
10	step (GeneID 35425)	2	1.94e5	1.78e5	2.18e6	1.55e6
11	ubl (GeneID 35592)	1	2.87e5	2.23e5	1.71e6	1.40e6
12	CG33768 (GeneID 3771840)	1	2.81e5	1.88e5	1.73e6	2.07e6
13	CG6576 (GeneID 39003)	1	2.28e5	2.55e5	2.42e6	2.11e6
14	CG6576 (GeneID 39003)	2	5.22e5	5.26e5	1.13e6	1.18e6
15	Tsp96F (GeneID 43127)	1	88221	1.01e5	8.94e5	7.98e5
16	Phyhd1 (GeneID 41275)	1	2.04e5	1.93e5	3.22e6	2.87e6
17	Phyhd1 (GeneID 41275)	2	2.50e5	2.87e5	8.20e5	8.30e5
18	kn (GeneID 45318)	1	55099	66959	1.23e6	1.23e6
19	kn (GeneID 45318)	2	64206	97192	1.49e6	1.49e6
20	kn (GeneID 45318)	3	6.58e5	6.83e5	3.09e6	2.30e6
21	kn (GeneID 45318)	4	8.97e5	8.36e5	8.04e5	1.14e6
22	MAPk-Ak2 (GeneID 44573)	1	1.76e5	1.82e5	2.20e6	2.12e6
23	MAPk-Ak2 (GeneID 44573)	2	3.66e5	3.70e5	6.93e5	6.93e5
24	PolD2 (GeneID 38228)	1	8.85e5	7.14e5	1.74e6	1.49e6
25	scrt (GeneID 38469)	1	93254 (active)	1.68e5	6.72e5	8.06e5
26	scrt (GeneID 38469)	2	4.35e5	3.85e5	1.01e6	6.78e5
27	2SrRNA-Psi:CR40677 (GeneID 5740367)	1	8.16e5	8.73e5	1.74e6	2.10e6
28	CG13700 (GeneID 40013)	1	1.97e5	1.07e5	2.00e6	1.88e6
29	CG13700 (GeneID 40013)	2	9.48e5	8.65e5	1.22e6	1.08e6
30	Cdk12 (GeneID 40385)	1	47661	48979	3.22e5	3.55e5
31	Cdk12 (GeneID 40385)	2	7.01e5	7.05e5	1.55e6	1.38e6
32	Cdk12 (GeneID 40385)	3	2.83e5	2.49e5	5.39e5	5.39e5
33	Prim2 (GeneID 44915)	1	9271	5459	1.33e5	96836
34	Osi21 (GeneID 34566)	1	2.55e5	1.35e5	2.09e6	1.38e6
35	CG4660 (GeneID 31542)	1	3.33e5	4.11e5	2.31e6	2.37e6
36	CG4781 (GeneID 37943)	1	2.37e5	2.18e5	1.55e6	1.41e6
37	tna (GeneID 39217)	1	8.31e5	1.12e6	1.82e6	1.62e6
38	tna (GeneID 39217)	2	7.35e5	6.80e5	1.01e6	1.01e6
39	CG33263 (GeneID 2768952)	1	2.99e5	2.71e5	2.59e6	1.92e6
40	CG18585 (GeneID 34041)	1	8.83e5	1.09e6	2.22e6	2.20e6
41	CG31415 (GeneID 318722)	1	3.44e5	8.09e5	1.48e6	1.78e6
42	Cmtr1 (GeneID 31355)	1	1.65e5	1.70e5	2.02e6	1.89e6
43	Cmtr1 (GeneID 31355)	2	3.40e5	2.62e5	5.06e5	7.08e5
44	CG4210 (GeneID 41832)	1	1.44e5	1.95e5	2.28e6	2.84e6
45	CG4210 (GeneID 41832)	2	2.40e5	3.05e5	7.68e5	6.46e5
46	Tdrd3 (GeneID 39612)	1	1.32e5	1.63e5	1.39e6	1.16e6
47	Mon1 (GeneID 33689)	1	62024	51249	3.75e5	4.66e5
48	Mon1 (GeneID 33689)	2	2.51e5	2.37e5	7.09e5	6.52e5
49	CG5708 (GeneID 34361)	1	2.60e5	2.08e5	1.59e6	1.56e6
50	CG34251 (GeneID 5740860)	1	7.70e5	6.91e5	2.04e6	1.62e6
51	CG9257 (GeneID 35375)	1	1.10e5	90126	1.46e6	1.38e6
52	Ns1 (GeneID 42060)	1	1.09e5	1.07e5	1.41e6	1.49e6
53	CG3198 (GeneID 31602)	1	3.92e5	4.45e5	3.16e6	3.25e6
54	CG3198 (GeneID 31602)	2	1.35e5	1.40e5	1.39e6	1.33e6
55	CG3198 (GeneID 31602)	3	9.91e5	8.27e5	1.91e6	1.74e6
56	Sodh2 (GeneID 41313)	1	68907	87082	1.59e6	2.40e6
57	CG12861 (GeneID 36628)	1	1.41e5	1.97e5	3.22e6	3.22e6
58	CG12861 (GeneID 36628)	2	7.13e5	6.34e5	1.25e6	1.33e6
59	CG12861 (GeneID 36628)	3	9.69e5	9.95e5	1.06e6	9.87e5
60	Dys (GeneID 42327)	1	8.90e5	8.32e5	1.47e6	1.33e6
61	Dys (GeneID 42327)	2	1.80e5	2.22e5	3.01e6	3.13e6
62	Dys (GeneID 42327)	3	1.67e5	1.89e5	2.65e6	3.21e6
63	Dys (GeneID 42327)	4	2.40e5	2.78e5	3.12e6	3.49e6
64	Dys (GeneID 42327)	5	1.78e5	1.06e5	2.84e6	2.00e6
65	Dys (GeneID 42327)	6	2.22e5	2.53e5	2.46e6	2.97e6
66	Dys (GeneID 42327)	7	6.25e5	6.95e5	7.47e5	7.93e5
67	ND-49 (GeneID 43798)	1	2.26e5	2.61e5	3.42e6	2.89e6
68	Tim17b (GeneID 3355107)	1	7.29e5	7.70e5	1.89e6	2.00e6
69	CheA7a (GeneID 31672)	1	2.62e5	3.00e5	2.26e6	2.58e6
70	CG7668 (GeneID 40190)	1	63058	51210	7.71e5	4.60e5
71	CG30414 (GeneID 37705)	1	3.52e5	2.89e5	2.31e6	2.09e6
72	CG30414 (GeneID 37705)	2	5.83e5	5.54e5	1.16e6	1.22e6
73	CG8563 (GeneID 38826)	1	1.43e5	1.45e5	9.94e5	1.52e6
74	Mcm6 (GeneID 31603)	1	1.15e5	49275	4.78e5	2.67e5
75	Mcm6 (GeneID 31603)	2	5.12e5	4.25e5	5.12e5	3.82e5
